# Positions count from the first letter of the chain named. No constants are given. Whether binding was seen depends on the method and setting. Some entries that bind do so weakly or less than the wild type.
# Protein sequences, listed by entry. Tags and fused reporters are not part of them. Lines headed by an entry give the natural chain unless they say otherwise; changes in a name come on top.
# UniProt P04070: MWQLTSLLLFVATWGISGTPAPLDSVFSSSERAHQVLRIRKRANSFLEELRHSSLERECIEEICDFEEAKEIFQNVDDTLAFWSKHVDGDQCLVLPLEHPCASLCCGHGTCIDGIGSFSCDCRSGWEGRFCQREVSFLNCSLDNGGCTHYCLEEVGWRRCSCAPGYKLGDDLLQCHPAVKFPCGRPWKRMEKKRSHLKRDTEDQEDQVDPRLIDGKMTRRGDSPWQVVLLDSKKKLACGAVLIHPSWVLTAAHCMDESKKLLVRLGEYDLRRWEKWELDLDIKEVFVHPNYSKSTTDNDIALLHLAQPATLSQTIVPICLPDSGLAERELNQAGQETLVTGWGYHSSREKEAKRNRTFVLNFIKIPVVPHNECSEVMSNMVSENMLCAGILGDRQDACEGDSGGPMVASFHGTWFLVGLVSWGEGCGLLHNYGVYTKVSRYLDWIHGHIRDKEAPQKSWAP
# B1: SR16983-R2P1C10 (VHH)
# VHH: QLQLVESGGGLVQPGGSLRLSCAASGRIFGSYVMGWFRQAPGKEHEFVAASSRSTGNTVYLDSVKGRFTISRDDAKNTLYLQMNSLKPEDTAVYYCATRASINYNYANWPYRGQGTQVTVSS
# B2: SR16983-R4-P1-C05 (VHH)
# VHH: B1 VHH with P14A, I28T, H45R, E46A, A49G, S51A, N57T, T98A, R112W
# B3: SR16983-R2-P2-G09 (VHH)
# VHH: QLQLVESGGGLVQAGGSLRLSCVASGTTFSIEETYWYRLAPGKQRELVAVISGGGNTNYADSVKGRFTISRDNAKNTVYLQMNSLKPEDTAVYYCSARTIATVKWGQGIQVTVSS
# B4: SR16983-R3-P4-A08 (VHH)
# VHH: QLQLVESGGGLVQAGDSLRLSCVFSGLTASTYAMAWFRQAPGKEREFVSVIDWKGDTTYANSVKGRFTISRDNGNKTVYLQMNSLQPEDTALYYCAARGSPGYVARLYAHWGRGTQVTVSS
# B5: SR16983-R3-P5-A06 (VHH)
# VHH: QLQLVESGGGLVQAGGSLRLSCVASGTTFTIEDIGWYRLAPGKQRELVAIISGGNTNYADSVKGRFTISRDNAKNTVYLQMNSLKPEDTAVYYCNGRTKATVKWGRGTQVTVSS
# B6: SR16983-R2-P4-E03 (VHH)
# VHH: QVQLVESGGGLVQAGGSLRLSCAASGRTFSSGALGWFRQAPGKEREFVATIRWSDERKQYSEFVKGRFTISRDSAKNTVYLQMNNLQPEDTAVYYCRSTVGNVLYWGQGTQVTVSS
# B7: SR16983-R2-P5-A12 (VHH)
# VHH: B6 VHH with Q13E
# B8: SR16983-R2-P2-C04 (VHH)
# VHH: QLQLVESGGGLVQAGGSLRLSCAASRTTFRINGVDWYRQVPGKQRELVATASSDGPTNYAESVKGRFTISRDNAKNTVYLQMNSLKPEDTAVYYCRIVLPSRIIWGQGTQVTVSS
# B9: SR16983-R3-P2-G01 (VHH)
# VHH: QLQLVESGGGLVQAGGSLRLSCAASGSTFSFNYMGWYRQAPGNQRDLVARISSGGITNYADSVKGRFTISGDNAKNTVYLQMNSLKPEDTARYYCFYNGYLNKWGRGTQVTVSS
# B10: SR16983-R2-P2-F02 (VHH)
# VHH: B9 VHH with S27T, N32V, G54D, I56S, G71R, K86R, Y100H, R106Q
# B11: SR16983-R2-P2-H04 (VHH)
# VHH: B9 VHH with L2V, S27T, N32V, Y37F, G54D, I56S, Y94F, G99A, Y100H, R106Q
# B12: SR16983-R2P1F04 (VHH)
# VHH: B9 VHH with G26R, S27T, Y100H, R106Q
# B13: SR16983-R3-P3-A08 (VHH)
# VHH: EVQLVESGGGLVQAGGSLRLSCAASGRTFVGTYVMGWFRQAPGKAREFVAASSRSTGNTVYLDSVKGRFTVSRDDAKNTLYLQMNSLKPEDTAVYYCAARASINYNAANWPYWGQGTQVTVSS
# B14: SR16983-R3-P3-H05 (VHH)
# VHH: QVQLVESGGGLVQPGRSLRLSCAASGFTFSTKWMYWVRQGPGKGLERVAAIDAGGGSTYYADSVKGRFTISRDNSENTVYLQMNSLESADTAVYYCARSEGGLFRGRGTQVTVSA
# B15: SR16983-R4-P1-A05 (VHH)
# VHH: EVQLVESGGGLVQAGESLRLSCVLSGSTFGRNVITWYRQPPGKQREFIAMITTSGNTRYADSVKGRFTMSRDTAKNTAFLQMSNLKLEDTAVYYCWTAIAGQGEYWGQGTQVTVSS
# B16: SR16983-R3-P5-F03 (VHH)
# VHH: QVQLVESGGGLVQAGGSLRLSCAASGRTVGTYAIGWFRQAPGKEREFVAAFSRSTGNTVYPDSVKGRFTISRDDAKNTLYLQMNSLKPEDTAVYYCAARASINYNYANWPYWGQGTQVTVSS
# B17: SR16983-R3-P2-D01 (VHH)
# VHH: EVQLVESGGGLVQAGGSLRLSCAASGFTFSTKWMYWVRQGPGKGLEWVSTIDASGGSTYYADSVKGRFTISRDNTEKKVYLQMNSLESADTAVYYCARSAGGQFRGRGTQVTVSS
# B18: SR16983-R2-P2-D01 (VHH)
# VHH: QLQLVESGGGLVQAGGSLRLSCVASGRTFSTYAMGWFRQAPGKEREFVGAIRWDGGSTNYANSVKGRFTISRDNAKNTVYLQVNSLKPEDTAVYYCAARASINYNYANWPYWGRGTQVTVSS
# B19: SR16983-R3P2E05 (VHH)
# VHH: QVQLVESGGGLVQAGGSLRLSCTTSGSTFSITAGGWYRQAPGEQRELVADVANDGSTSYAESVKGRFTISRDNAKNIVELQMSSLELEDTAVYVCFVVGISDSTPRPRAYWGQGTQVTVAS
# B20: SR16983-R3P2D06 (VHH)
# VHH: B1 VHH with I28T, F29V, H45R, F47L, V48L, L61A, T98A, R112W
# B21: SR16983-R3-P5-H06 (VHH)
# VHH: B16 VHH with V2L, V29F, A33V, L79V
# B22: SR16983-R2-P3-F12 (VHH)
# VHH: B16 VHH with V29F, A33V, I34M, N57S, V59T, P61A, A98T
# B23: SR16983-R3-P3-G04 (VHH)
# VHH: QLQLVESGGGLVQAGGSLRLSCTASGSTVRVTAGGWYRQAPGNERELVADIDNGGRPTYADSVKGRFTISRDNAKNAVDLQMNNLKPEDTAVYYCFVIAIPDSAPRPRAYWGQGTQVTVSS
# B24: SR16983-R2-P5-D01 (VHH)
# VHH: B5 VHH with A73T
# B25: SR16983-R2-P3-E05 (VHH)
# VHH: EVQLVESGGGLVQAGGSLRLSCAASGLTASTYVMAWFRQAPGKERDFVSLIDWRGEPTYANSVKGRFTISRDNGKNTVFLQMNSLRPEDTALYYCAVRASPGYVASLYPYWGRGTQVTVSS
# B26: SR16983-R2-P3-F10 (VHH)
# VHH: B14 VHH with R16G, A23K, G54S, E76D, L103Q, R107Q, A115S
# B27: SR16983-R3P2A08 (VHH)
# VHH: B14 VHH with V2L, R16G, G54S
# B28: SR16983-R3P2A5 (VHH)
# VHH: B14 VHH with V2L, R16G, G54S, V79L
# B29: SR16983-R3-P5-G12 (VHH)
# VHH: B16 VHH with V2L, A23V, T31S, I34V, G35A, F47L, V48L, F51S, P61A, S71A
# B30: SR16983-R2-P3-B01 (VHH)
# VHH: B16 VHH with V2L, V29F, A33V, L79V, Y80T
# B31: SR16983-R2-P3-F01 (VHH)
# VHH: B17 VHH with A14P, A97V
# Target: human activated protein C (APC) (human) (UniProt P04070)
# Experiment: ELISA screen, APC-coated wells, OD450, n=2
row,binding,Binder
1,binds,B1
2,binds,B2
3,binds,B3
4,binds,B4
5,binds,B5
6,binds,B6
7,binds,B7
8,binds,B8
9,binds,B9
10,binds,B10
11,binds,B11
12,binds,B12
13,binds,B13
14,binds,B14
15,binds,B15
16,binds,B16
17,binds,B17

# Target: human activated protein C (APC) (human) (UniProt P04070)
# Experiment: ELISA screen, APC-coated wells, OD450, n=2 [Continued]
row,binding,Binder
1,binds,B18
2,binds,B19
3,binds,B20
4,binds,B21
5,binds,B22
6,binds,B23
7,binds,B24
8,binds,B25
9,binds,B26
10,binds,B27
11,binds,B28
12,binds,B29
13,binds,B30
14,binds,B31

# Target: human activated protein C (APC) (human) (UniProt P04070)
# Experiment: ELISA
row,binding,Binder
1,binds,B18
2,binds,B19
3,binds,B1
4,binds,B20
5,binds,B21
6,binds,B2
7,binds,B22
8,binds,B3
9,binds,B23
10,binds,B4
11,binds,B5
12,binds,B24
13,binds,B6
14,binds,B7
15,binds,B8
16,binds,B9

row,binding,Binder
1,binds,B10
2,binds,B11
3,binds,B12
4,binds,B25
5,binds,B13
6,binds,B14
7,binds,B26
8,binds,B27
9,binds,B28
10,binds,B15
11,binds,B16
12,binds,B29
13,binds,B30
14,binds,B17
15,binds,B31
